{
  "source": "patent US5225411A",
  "about": "“Disubstituted polymethyleneimines” (priority 1990, dated 1993)",
  "tested_on": "Chinese Hamster Pulmonary Line DC-3F/AD",
  "test": "Increase in the cytotoxicity of actinomycin D on the Chinese hamster pulmonary line DC-3F/AD;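 also: DC-3F/AD is an extremely resistant cell line whose resistance factor exceeds 10,000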",
  "assay_type": "cell-based",
  "conditions": "4 days",
  "data": [
    {"smiles": "COC(=O)C1=C(C)NC(C)=C(C(=O)OC)C1c1ccccc1[N+](=O)[O-]", "note": "[NIFEDIPINE]", "values": [
      {"measurement": "Reversion Factor (RF)", "setting": "compound 5 μM", "value": "< 11"},
      {"measurement": "Reversion Factor (RF)", "setting": "compound 10 μM", "value": "TOX"},
      {"measurement": "Reversion Factor (RF)", "setting": "compound 20 μM", "value": "TOX"}
    ]}
  ]
}
